Results as given in publication PMC9358705.
No constants are given. Whether binding was seen depends on the method and setting. Binding seen in cells or lysates may run through a third protein. A yes stands for co-enrichment or nearness to the bait. Other partners may have been found.

Chains of the proteins cited; added tags and fusions are not shown.
UniProt P21333: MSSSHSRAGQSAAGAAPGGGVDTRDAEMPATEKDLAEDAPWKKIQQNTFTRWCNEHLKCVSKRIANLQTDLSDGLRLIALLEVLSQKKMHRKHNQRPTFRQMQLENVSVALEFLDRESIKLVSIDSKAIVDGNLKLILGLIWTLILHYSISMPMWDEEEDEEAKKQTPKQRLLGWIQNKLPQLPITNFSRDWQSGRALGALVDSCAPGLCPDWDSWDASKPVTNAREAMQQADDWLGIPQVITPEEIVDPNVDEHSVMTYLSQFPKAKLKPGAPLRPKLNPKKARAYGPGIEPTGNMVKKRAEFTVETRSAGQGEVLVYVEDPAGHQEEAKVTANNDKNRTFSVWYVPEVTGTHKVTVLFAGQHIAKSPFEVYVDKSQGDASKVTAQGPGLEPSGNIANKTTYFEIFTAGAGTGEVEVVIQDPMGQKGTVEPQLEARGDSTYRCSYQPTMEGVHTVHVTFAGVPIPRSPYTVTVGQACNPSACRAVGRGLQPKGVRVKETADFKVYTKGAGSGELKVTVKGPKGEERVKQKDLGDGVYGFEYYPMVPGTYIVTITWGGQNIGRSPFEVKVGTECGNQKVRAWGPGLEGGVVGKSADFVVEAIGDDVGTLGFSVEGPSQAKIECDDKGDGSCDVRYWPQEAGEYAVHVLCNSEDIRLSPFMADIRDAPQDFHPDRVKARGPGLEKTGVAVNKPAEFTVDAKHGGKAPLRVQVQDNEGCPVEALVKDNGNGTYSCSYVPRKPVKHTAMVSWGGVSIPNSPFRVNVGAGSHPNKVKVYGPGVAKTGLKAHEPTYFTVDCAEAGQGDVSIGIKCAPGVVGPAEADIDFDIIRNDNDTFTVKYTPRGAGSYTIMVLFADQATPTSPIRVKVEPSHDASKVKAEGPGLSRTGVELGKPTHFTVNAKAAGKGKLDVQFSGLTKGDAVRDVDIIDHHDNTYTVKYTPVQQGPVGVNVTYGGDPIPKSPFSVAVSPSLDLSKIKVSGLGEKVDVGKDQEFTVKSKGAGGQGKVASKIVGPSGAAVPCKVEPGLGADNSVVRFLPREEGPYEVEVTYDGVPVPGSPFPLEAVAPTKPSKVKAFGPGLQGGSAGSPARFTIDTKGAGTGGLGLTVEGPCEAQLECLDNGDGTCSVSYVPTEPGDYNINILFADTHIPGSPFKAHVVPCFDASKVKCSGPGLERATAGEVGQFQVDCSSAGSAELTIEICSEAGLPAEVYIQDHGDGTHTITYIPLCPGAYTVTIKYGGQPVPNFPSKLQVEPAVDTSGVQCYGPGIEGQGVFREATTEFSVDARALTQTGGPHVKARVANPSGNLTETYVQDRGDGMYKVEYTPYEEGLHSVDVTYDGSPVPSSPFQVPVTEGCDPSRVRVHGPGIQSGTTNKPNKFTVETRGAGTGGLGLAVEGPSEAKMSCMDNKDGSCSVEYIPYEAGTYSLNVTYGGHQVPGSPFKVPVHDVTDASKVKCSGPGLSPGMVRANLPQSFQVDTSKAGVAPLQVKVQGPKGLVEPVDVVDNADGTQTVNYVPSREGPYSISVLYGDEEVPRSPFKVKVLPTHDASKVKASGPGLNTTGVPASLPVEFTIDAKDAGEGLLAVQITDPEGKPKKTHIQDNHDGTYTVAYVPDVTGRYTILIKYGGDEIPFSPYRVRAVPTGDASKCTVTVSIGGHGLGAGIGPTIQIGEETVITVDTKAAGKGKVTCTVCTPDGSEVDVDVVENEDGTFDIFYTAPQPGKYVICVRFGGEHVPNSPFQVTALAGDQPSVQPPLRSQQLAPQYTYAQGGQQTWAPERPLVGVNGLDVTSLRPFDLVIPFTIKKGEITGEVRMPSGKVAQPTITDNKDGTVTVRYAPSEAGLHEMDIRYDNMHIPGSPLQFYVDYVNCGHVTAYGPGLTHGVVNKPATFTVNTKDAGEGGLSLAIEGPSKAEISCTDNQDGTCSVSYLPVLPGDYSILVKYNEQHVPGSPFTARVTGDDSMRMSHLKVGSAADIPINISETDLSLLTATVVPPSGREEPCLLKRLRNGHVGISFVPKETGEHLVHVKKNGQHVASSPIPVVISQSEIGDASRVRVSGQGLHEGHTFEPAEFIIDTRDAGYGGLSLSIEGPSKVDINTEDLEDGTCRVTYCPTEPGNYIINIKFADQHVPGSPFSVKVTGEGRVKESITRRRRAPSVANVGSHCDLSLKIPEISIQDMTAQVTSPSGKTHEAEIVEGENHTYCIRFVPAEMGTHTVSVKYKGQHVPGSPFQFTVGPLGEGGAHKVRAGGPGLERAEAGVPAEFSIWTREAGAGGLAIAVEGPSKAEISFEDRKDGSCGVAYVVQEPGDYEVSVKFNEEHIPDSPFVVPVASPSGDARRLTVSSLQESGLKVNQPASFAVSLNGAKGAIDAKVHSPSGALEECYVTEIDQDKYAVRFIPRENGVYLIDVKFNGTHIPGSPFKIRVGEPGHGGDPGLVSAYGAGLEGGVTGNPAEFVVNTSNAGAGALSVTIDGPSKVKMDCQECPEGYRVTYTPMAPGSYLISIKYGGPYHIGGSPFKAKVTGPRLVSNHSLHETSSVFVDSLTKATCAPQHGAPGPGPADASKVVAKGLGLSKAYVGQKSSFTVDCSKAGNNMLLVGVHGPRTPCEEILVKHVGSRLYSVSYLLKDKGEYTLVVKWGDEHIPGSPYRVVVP

Target: T1, Semaphorin 3d (human (endogenous in PLC/PRF/5; cDNA of the lentiviral construct in HCCLM3 not stated)) (UniProt O95025)
T1 sequence: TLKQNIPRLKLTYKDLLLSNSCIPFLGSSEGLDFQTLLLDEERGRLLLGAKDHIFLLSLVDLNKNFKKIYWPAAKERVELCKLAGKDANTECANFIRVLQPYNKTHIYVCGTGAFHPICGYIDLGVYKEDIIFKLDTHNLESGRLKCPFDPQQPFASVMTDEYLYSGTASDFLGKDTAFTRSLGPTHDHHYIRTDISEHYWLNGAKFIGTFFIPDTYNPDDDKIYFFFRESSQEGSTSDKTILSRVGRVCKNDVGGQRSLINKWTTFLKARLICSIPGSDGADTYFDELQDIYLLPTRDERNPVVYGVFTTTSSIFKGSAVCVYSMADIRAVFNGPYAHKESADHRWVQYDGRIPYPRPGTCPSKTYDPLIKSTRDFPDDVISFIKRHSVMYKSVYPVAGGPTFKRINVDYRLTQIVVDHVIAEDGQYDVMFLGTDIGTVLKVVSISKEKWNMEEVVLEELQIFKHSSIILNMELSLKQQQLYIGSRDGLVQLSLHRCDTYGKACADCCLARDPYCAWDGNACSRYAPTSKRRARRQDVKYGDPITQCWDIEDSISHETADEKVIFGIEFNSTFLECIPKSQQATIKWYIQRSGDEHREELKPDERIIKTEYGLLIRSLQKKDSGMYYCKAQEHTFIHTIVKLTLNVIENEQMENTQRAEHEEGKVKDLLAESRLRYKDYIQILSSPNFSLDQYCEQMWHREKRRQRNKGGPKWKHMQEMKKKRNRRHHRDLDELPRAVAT
Experiment: affinity purification with mass spectrometry; co-IP with an anti-Sema3d antibody from Sema3d high-expressed HCC cells (HCCLM3 Sema3d; text also names PLC/PRF/5 shCtr), precipitate identified by LC-MS/MS, proteins ranked by Score Sequest

Substance: filamin-A (from UniProt P21333 1-2647)
- binding: binds
